Source: paper PMC5921305
No constants are given. Whether binding was seen depends on the method and setting. For part of these data: In cells and extracts the contact can be indirect. Some entries that bind do so weakly or less than the wild type. For part of these data: Sequences can lack the tags named with a protein. Values belong to the molecule of their own block, whether it stands above or below them.

Chains of the proteins cited; added tags and fusions are not shown. Lines headed by an entry give the natural chain unless they say otherwise; changes in a name come on top. Residues count along the entry.
UniProt P70227, whole entry: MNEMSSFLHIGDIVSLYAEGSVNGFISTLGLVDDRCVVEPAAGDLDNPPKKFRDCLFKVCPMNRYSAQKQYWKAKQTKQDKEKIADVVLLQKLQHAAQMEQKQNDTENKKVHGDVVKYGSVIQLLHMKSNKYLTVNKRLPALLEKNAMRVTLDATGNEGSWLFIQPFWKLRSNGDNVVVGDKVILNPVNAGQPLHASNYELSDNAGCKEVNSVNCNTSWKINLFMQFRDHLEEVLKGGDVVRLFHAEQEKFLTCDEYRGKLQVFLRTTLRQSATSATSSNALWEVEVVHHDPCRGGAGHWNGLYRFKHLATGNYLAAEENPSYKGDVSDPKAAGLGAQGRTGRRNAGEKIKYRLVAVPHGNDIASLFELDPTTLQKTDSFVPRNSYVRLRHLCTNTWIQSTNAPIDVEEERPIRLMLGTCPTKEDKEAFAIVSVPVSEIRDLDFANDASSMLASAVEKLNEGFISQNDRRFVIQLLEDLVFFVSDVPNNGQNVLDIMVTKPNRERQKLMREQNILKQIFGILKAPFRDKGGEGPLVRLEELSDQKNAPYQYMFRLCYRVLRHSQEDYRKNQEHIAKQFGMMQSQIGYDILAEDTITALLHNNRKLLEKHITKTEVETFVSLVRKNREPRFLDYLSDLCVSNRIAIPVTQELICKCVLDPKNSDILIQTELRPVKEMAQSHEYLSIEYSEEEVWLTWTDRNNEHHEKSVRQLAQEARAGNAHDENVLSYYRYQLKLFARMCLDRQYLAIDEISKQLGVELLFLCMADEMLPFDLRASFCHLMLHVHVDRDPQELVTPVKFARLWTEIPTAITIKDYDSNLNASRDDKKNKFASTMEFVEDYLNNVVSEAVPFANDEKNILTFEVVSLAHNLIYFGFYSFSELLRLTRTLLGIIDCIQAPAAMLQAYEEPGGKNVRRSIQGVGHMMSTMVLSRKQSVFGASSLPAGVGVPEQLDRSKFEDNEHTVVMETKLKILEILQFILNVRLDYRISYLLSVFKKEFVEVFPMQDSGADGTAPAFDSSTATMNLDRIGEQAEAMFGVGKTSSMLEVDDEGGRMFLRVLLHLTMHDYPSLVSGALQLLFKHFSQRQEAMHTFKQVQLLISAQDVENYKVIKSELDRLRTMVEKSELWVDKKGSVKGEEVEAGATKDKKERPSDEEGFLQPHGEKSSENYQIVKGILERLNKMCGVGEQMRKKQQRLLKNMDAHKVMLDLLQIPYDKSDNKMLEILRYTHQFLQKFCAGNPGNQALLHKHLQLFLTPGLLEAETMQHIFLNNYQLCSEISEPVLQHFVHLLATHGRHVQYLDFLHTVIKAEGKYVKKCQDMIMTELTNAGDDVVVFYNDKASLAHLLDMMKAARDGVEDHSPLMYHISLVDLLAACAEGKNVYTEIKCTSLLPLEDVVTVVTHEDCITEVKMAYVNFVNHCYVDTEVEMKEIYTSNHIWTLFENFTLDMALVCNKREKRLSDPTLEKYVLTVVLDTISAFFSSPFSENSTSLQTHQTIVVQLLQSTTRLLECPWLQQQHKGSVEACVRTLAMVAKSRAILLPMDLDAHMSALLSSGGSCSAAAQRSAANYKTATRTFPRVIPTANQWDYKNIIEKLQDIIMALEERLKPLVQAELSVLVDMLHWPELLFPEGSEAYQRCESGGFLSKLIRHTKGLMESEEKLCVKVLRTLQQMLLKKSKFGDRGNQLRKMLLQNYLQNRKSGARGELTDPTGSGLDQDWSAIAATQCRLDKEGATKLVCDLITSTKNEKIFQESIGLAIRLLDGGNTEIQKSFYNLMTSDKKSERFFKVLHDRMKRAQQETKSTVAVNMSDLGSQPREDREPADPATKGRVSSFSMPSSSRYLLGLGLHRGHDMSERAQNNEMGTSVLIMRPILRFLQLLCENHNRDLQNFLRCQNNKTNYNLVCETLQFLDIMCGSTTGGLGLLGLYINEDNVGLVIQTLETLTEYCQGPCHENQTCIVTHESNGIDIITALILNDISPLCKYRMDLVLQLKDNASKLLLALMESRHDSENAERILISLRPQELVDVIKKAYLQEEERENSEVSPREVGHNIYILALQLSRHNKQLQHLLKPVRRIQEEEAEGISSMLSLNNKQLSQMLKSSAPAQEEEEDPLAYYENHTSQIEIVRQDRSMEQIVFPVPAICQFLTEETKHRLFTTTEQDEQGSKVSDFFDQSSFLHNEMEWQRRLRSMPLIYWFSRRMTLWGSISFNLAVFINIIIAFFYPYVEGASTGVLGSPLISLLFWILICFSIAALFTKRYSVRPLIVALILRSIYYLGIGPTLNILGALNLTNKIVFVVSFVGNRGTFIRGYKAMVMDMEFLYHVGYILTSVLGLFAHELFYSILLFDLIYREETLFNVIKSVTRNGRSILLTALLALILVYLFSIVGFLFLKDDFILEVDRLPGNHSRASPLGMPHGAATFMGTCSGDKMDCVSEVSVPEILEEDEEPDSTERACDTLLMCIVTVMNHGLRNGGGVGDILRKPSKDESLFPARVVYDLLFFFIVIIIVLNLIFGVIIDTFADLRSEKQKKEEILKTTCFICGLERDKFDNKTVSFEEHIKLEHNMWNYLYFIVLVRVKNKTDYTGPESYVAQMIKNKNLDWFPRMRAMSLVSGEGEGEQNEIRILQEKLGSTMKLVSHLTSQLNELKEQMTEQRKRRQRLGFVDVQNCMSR
UniProt P29994, 2571-2606: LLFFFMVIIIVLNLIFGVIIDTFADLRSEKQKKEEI
UniProt P11881, whole entry: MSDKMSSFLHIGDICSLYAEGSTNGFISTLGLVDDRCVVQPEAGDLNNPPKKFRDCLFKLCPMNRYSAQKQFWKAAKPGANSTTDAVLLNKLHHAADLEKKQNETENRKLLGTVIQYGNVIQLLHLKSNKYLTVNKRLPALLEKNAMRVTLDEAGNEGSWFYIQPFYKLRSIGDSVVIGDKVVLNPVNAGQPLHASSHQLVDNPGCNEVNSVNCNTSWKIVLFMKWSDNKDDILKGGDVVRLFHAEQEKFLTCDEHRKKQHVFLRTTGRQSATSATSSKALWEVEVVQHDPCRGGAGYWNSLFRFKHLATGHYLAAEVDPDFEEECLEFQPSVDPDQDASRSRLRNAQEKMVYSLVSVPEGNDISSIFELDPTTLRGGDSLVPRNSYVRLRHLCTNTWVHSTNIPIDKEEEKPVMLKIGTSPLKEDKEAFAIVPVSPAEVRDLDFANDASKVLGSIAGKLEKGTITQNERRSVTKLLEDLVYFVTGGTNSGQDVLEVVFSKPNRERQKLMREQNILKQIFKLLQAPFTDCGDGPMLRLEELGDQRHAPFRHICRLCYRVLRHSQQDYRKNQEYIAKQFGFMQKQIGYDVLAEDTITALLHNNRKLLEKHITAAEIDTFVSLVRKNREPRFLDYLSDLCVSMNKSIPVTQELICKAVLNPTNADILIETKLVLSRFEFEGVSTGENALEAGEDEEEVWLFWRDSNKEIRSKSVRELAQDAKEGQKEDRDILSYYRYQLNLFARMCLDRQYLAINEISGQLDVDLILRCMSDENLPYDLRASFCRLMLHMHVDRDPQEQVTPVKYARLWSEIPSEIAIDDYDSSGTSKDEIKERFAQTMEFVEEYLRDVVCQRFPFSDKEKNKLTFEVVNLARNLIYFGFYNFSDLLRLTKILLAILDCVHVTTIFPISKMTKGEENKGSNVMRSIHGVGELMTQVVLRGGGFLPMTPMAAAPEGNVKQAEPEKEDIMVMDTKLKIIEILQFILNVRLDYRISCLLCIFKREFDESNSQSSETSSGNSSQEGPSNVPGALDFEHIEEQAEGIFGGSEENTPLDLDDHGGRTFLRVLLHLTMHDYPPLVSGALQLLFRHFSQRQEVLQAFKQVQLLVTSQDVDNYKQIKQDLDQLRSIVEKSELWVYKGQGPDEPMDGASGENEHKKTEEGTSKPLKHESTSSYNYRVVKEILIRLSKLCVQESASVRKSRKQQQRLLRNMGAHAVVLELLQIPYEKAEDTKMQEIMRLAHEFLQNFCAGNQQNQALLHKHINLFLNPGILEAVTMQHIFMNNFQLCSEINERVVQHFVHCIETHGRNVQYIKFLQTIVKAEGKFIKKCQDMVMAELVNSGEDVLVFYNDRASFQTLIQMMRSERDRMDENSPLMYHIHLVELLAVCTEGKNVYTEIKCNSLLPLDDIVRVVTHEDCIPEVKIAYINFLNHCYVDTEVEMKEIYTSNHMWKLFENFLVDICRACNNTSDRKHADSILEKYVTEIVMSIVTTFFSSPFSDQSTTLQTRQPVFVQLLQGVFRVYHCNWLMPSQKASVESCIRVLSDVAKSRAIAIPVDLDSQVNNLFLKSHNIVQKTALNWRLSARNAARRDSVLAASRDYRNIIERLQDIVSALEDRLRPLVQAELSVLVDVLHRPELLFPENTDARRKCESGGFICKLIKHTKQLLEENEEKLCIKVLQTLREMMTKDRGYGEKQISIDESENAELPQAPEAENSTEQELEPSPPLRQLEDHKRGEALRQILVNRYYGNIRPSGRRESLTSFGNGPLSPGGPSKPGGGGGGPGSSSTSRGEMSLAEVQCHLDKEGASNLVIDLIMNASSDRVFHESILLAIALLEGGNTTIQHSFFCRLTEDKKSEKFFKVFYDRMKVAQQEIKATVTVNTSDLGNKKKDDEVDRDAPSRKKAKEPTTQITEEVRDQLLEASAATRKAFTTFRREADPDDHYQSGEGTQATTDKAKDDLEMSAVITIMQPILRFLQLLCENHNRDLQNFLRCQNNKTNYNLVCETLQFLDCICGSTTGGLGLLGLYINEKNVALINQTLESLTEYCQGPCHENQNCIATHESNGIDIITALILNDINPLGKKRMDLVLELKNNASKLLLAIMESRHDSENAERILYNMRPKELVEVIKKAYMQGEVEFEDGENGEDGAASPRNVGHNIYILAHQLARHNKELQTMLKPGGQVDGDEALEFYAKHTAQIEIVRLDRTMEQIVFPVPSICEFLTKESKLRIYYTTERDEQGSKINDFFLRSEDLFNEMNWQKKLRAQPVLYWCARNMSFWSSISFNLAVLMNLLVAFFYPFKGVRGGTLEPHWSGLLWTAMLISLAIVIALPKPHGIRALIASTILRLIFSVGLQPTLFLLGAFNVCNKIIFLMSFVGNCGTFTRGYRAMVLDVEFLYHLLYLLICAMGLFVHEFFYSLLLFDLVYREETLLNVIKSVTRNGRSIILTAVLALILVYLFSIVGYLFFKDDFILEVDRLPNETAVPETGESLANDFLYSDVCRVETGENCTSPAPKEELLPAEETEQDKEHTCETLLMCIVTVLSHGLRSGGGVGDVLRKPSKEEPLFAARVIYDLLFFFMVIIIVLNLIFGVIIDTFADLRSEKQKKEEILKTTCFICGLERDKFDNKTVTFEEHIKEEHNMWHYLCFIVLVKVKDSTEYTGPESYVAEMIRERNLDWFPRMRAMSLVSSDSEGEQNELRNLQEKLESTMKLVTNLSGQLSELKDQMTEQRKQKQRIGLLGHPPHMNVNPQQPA
UniProt Q9D4H1, whole entry: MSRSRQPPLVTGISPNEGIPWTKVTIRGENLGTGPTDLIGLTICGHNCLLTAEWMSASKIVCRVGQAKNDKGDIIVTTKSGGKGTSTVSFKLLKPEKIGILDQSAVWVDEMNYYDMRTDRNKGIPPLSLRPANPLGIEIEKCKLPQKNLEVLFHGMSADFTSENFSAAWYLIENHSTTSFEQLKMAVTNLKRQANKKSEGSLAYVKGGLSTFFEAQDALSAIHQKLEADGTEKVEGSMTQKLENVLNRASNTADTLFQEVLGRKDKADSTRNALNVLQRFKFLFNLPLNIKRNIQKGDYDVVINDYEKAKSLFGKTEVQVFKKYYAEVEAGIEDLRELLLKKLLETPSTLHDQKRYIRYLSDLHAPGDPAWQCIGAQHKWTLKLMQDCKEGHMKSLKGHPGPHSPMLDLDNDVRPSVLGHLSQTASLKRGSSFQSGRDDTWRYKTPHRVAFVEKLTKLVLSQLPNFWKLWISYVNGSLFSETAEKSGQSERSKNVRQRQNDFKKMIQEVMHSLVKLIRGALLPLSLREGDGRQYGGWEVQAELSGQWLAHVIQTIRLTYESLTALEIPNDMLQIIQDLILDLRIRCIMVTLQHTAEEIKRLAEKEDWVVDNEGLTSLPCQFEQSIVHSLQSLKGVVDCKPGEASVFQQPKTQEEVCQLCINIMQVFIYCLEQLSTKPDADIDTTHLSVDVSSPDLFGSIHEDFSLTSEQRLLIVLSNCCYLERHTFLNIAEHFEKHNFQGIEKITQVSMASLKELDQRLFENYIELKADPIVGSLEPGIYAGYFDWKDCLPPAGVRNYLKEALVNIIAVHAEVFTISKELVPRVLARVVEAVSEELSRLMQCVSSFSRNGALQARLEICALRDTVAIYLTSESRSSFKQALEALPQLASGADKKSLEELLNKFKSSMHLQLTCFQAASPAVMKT

Legend:
[1] = target: inositol 1,4,5-trisphosphate receptor type 3 (InsP3R3), endogenous mouse protein (mouse (endogenous in RAW264.7 and BMDM)) (UniProt P70227); assay: FRET or BRET; acceptor photobleaching FRET by confocal microscopy on immunostained BMDM cells; donor Alexa Fluor 488, acceptor Cy3; co-localised regions against non-co-localised regions
[2] = target: GST-InsP3R-H1 (GST fusion of the C-terminal α-helix H1 of rat type 1 InsP3R) (rat) (UniProt P29994); assay: pull-down; 20 μg GST fusion protein bound to beads with RAW264.7 lysate (1x DPBS, 1% Triton X-100, 0.5-1 mg/ml protein, 1 ml), 4°C, 2 h; cells stimulated with C. albicans (MOI = 10) or not; western blot; only the target purified
[3] = target: inositol 1,4,5-trisphosphate receptor type 3 (InsP3R3), endogenous mouse protein (mouse (endogenous in RAW264.7 and BMDM)) (UniProt P70227); assay: co-IP; endogenous proteins in RAW264.7 lysates (1x DPBS, 1% Triton X-100), cells stimulated with C. albicans (MOI = 10) or not; antibodies (anti-InsP3R1, anti-InsP3R3, anti-SEC5 or control rabbit IgG) on protein G agarose, 2 h; western blot
[4] = target: inositol 1,4,5-trisphosphate receptor type 1 (InsP3R1), endogenous mouse protein (mouse (endogenous in RAW264.7)) (UniProt P11881); assay: as above
[5] = target: exocyst complex component 2 (SEC5), endogenous mouse protein (mouse (endogenous in RAW264.7, BMDM and mouse brain)) (UniProt Q9D4H1); assay: as above
[6] = target: His-SEC5-N (N-terminus of SEC5, aa 1-440) (human) (UniProt Q96KP1); assay: co-IP; immunoprecipitation with purified V5-TBK1 and purified His-SEC5-N (aa 1-440) in the presence of H1-TAT or H1S-TAT peptides; both purified

binding [1]: binds
binding [2]: binds
binding [3]: binds
binding [4]: binds
Molecule: exocyst complex component 2 (SEC5), endogenous mouse protein (from UniProt Q9D4H1 1-924)

binding [5]: binds
Molecule: inositol 1,4,5-trisphosphate receptor type 3 (InsP3R3), endogenous mouse protein (from UniProt P70227 1-2670)

binding [6]: binds
B1: V5-TBK1 (enzyme, UniProt Q9UHD2 1-729)
chain: MQSTSNHLWLLSDILGQGATANVFRGRHKKTGDLFAIKVFNNISFLRPVDVQMREFEVLKKLNHKNIVKLFAIEEETTTRHKVLIMEFCPCGSLYTVLEEPSNAYGLPESEFLIVLRDVVGGMNHLRENGIVHRDIKPGNIMRVIGEDGQSVYKLTDFGAARELEDDEQFVSLYGTEEYLHPDMYERAVLRKDHQKKYGATVDLWSIGVTFYHAATGSLPFRPFEGPRRNKEVMYKIITGKPSGAISGVQKAENGPIDWSGDMPVSCSLSRGLQVLLTPVLANILEADQEKCWGFDQFFAETSDILHRMVIHVFSLQQMTAHKIYIHSYNTATIFHELVYKQTKIISSNQELIYEGRRLVLEPGRLAQHFPKTTEENPIFVVSREPLNTIGLIYEKISLPKVHPRYDLDGDASMAKAITGVVCYACRIASTLLLYQELMRKGIRWLIELIKDDYNETVHKKTEVVITLDFCIRNIEKTVKVYEKLMKINLEAAELGEISDIHTKLLRLSSSQGTIETSLQDIDSRLSPGGSLADAWAHQEGTHPKDRNVEKLQVLLNCMTEIYYQFKKDKAERRLAYNEEQIHKFDKQKLYYHATKAMTHFTDECVKKYEAFLNKSEEWIRKMLHLRKQLLSLTNQCFDIEEEVSKYQEYTNELQETLPQKMFTASSGIKHTMTPIYPSSNTLVEMTLGMKKLKEEMEGVVKELAENNHILERFGSLTMDGGLRNVDCL
